The values that follow come from the supplement of paper PMC10689618.

This is one part of the list. Many values rest on one well or one pass, so single values are uncertain.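 Primary human fetal astrocytes engulfed labelled rat cortical synaptosomes, measured as a red/green ratio corrected for calcein live-cell signal and scaled to the plate median. Toxicity meant calcein falling over 30%; decreased phagocytosis meant below 70% of median above 5 µM.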

The test system of the assay is Human fetal astrocytes. Put plainly: synaptosome phagocytosis (pHrodo/calcein intensity ratio) relative to plate median of data wells; higher = more phagocytosis. As to conditions: 11.11 µM; 24 h.
Regarding `NC(=O)c1cccnc1`, the synaptosome phagocytosis is 107%.

On to `C[C@H]1O[C@H](O[C@H]2[C@H](O)[C@@H](O)[C@@H](O[C@@H]([C@H](O)[C@@H](O)C=O)[C@H](O)CO)O[C@@H]2CO)[C@H](O)[C@@H](O)[C@@H]1N[C@H]1C=C(CO)[C@@H](O)[C@H](O)[C@H]1O`, for which the synaptosome phagocytosis is 122%.

In the case of `CCN(CC)CCOC(=O)C(c1ccccc1)c1ccccc1`, the synaptosome phagocytosis was 104%.

Turning to `N[C@@H](CSCSC[C@H](N)C(=O)O)C(=O)O`, the synaptosome phagocytosis is 112%.

As to `C=CC1=C(C)/C(=C/c2[nH]c(Cc3[nH]c(/C=C4\NC(=O)C(C)=C4C=C)c(C)c3CCC(=O)O)c(CCC(=O)O)c2C)NC1=O`, the synaptosome phagocytosis was 121%.

Regarding `C[C@]12CC[C@@H]3c4ccc(O)cc4CC[C@H]3[C@@H]1CC[C@@H]2OC(=O)CCC1CCCC1`, the synaptosome phagocytosis was 91.1%.

Take `C[C@@H]1C(=O)O[C@H]2C[C@@]34[C@H]5C[C@@H](C(C)(C)C)[C@]36[C@@H](OC(=O)[C@@H]6O)O[C@@]4(C(=O)O5)[C@]21O`: the synaptosome phagocytosis was 113%.

Take `CN(C)CCOC(c1ccc(Cl)cc1)c1ccccn1` (stereo not given): the synaptosome phagocytosis was 99.9%.

As to `COc1ccc(/C=C/C(=O)O)cc1OC`, the synaptosome phagocytosis is 126%.

Consider `COc1ccc2c(c1)O[C@H]1c3ccc(OC)cc3OC[C@@H]21`, for which the synaptosome phagocytosis was 100%.

Consider `CCCCC(CC)CN=C(N)N=C(N)NCCCCCCNC(N)=NC(N)=NCC(CC)CCCC` (stereo not given), for which the synaptosome phagocytosis is 58.5%.

Regarding `Cc1ncc(C[n+]2csc(CCO)c2C)c(N)n1`, the synaptosome phagocytosis was 136%.

Regarding `O=C(/C=C/c1ccccc1)c1ccc(O[C@@H]2O[C@H](CO)[C@@H](O)[C@H](O)[C@H]2O)cc1O`, the synaptosome phagocytosis is 99%.

With `COc1ccc(C(C)=O)c(O)c1`, the synaptosome phagocytosis is 118%.

Take `COc1c2ccoc2cc2oc(C)cc(=O)c12`: the synaptosome phagocytosis is 134%.
